Source: patent publication US20230270826A1, “ANTIVIRAL USE OF L[…] GEFITINIB” (priority 2020, published 2023)
For at least one compound, name, drawing or mass did not settle the structure.

System: genes from the COVID-19 model
Test: Transcription fingerprinting by 3' RNA-sequencing of nucleocapsid-stimulated cells
Format: cell-based, human
[1] = compound effect vs nucleocapsid stimulation

CCCCCCCCCCCCCCCC(=O)N[C@@H](CCC(=O)NCCCC[C@H](NC(=O)[C@H](C)NC(=O)[C@H](C)NC(=O)[C@H](CCC(N)=O)NC(=O)CNC(=O)[C@H](CCC(=O)O)NC(=O)[C@H](CC(C)C)NC(=O)[C@H](Cc1ccc(O)cc1)NC(=O)[C@H](CO)NC(=O)[C@H](CO)NC(=O)[C@@H](NC(=O)[C@H](CC(=O)O)NC(=O)[C@H](CO)NC(=O)[C@@H](NC(=O)[C@H](Cc1ccccc1)NC(=O)[C@@H](NC(=O)CNC(=O)[C@H](CCC(=O)O)NC(=O)[C@H](C)NC(=O)[C@@H](N)Cc1cnc[nH]1)[C@@H](C)O)[C@@H](C)O)C(C)C)C(=O)N[C@@H](CCC(=O)O)C(=O)N[C@@H](Cc1ccccc1)C(=O)N[C@H](C(=O)N[C@@H](C)C(=O)N[C@@H](Cc1c[nH]c2ccccc12)C(=O)N[C@@H](CC(C)C)C(=O)N[C@H](C(=O)N[C@@H](CCCNC(=N)N)C(=O)NCC(=O)N[C@@H](CCCNC(=N)N)C(=O)NCC(=O)O)C(C)C)[C@@H](C)CC)C(=O)O [liraglutide]
Expression of genes up- or down-regulated 2-fold by nucleocapsid (N) vs Mock (N+compound vs N, FIG. 4): “normalized” in their expression
Regulation of genes up-regulated at time 4 h N vs Mock (N-compound vs N, 4 h, FIG. 4 boxplots): strongly down-regulated
Regulation of genes downregulated in nucleocapsid (N) stimulation vs Mock [1]: upregulated
Regulation of genes upregulated in nucleocapsid (N) stimulation vs Mock [1]: downregulated
